Measurements from the supplement of paper PMC12823440, “Inhibitors supercharge kinase turnover through native proteolytic circuits” (Nature, 2025).
The other results are listed elsewhere or left out. The calls rarely recur for the same compound in another form.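 Kinases were expressed as nanoluciferase fusions in K562 cells and luminescence was read every 4 h between 2 and 18 h as percent of control, DMSO set to 100% and a positive control to 0%. A time point counts as decreased when the signal drops significantly (2 sigma). The hit call is the authors' own, does not follow from the count of time points alone, and its rule is not shown.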

Chains of the proteins cited; added tags and fusions are not shown. Lines headed by an entry give the natural chain unless they say otherwise; changes in a name come on top.
UniProt O14965: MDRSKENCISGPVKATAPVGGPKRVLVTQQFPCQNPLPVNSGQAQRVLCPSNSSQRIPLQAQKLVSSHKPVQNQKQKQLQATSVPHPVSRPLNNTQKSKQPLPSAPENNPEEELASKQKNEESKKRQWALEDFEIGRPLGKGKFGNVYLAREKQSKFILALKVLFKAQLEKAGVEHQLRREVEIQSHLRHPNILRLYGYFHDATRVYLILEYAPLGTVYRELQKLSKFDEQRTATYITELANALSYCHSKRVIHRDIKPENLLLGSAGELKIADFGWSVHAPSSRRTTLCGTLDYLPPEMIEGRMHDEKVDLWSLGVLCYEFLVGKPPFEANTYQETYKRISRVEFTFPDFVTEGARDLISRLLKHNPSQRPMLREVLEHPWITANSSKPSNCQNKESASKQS

Molecular target: AURKA (UniProt O14965)
Assay: kinase-Nluc reporter destabilization hit call (1 = scored as downregulated) (binary); higher = compound decreases kinase abundance
Conditions: K562; 2-18 h

kinase-Nluc reporter destabilization hit call, inactive:
CC(C)CCN1c2nc(Nc3cc(F)c(O)c(F)c3)ncc2N(C)C(=O)C1C (stereo not given) (2.5 µM) 0, CC(C)=CC[C@@H](O)C1=CC(=O)c2c(O)ccc(O)c2C1=O [Shikonin] (10 µM) 0, CCC(=O)Nc1cccc(Oc2nc(Nc3ccc(N4CCN(C)CC4)cc3OC)ncc2Cl)c1 (10 µM) 0, CC(C)=CCC/C(C)=C/CC/C(C)=C/C=C/C(C)=C/C(=O)O [Peretinoin] (10 µM) 0, COc1ccc2c(Oc3ccc4c(C(=O)Nc5ccccc5N)cccc4c3)ccnc2c1 [Chiauranib] (10 µM) 0, Cc1nn(C)cc1-c1nc2c(N3CCN(Cc4ccc(Cl)cc4)CC3)c(Cl)cnc2[nH]1 (10 µM) 0, CNC(=O)c1cc2c(Oc3ccc(NC(=O)C4(C(=O)Nc5ccc(F)cc5)CC4)cc3)ccnc2cc1OC (2.5 µM) 0, O=C(Nc1cccnc1)c1cc(-c2ccnc(F)c2)ccc1OCc1ccccc1 (10 µM) 0, CN(C)c1ccc(-c2nc3ncc(Cl)c(N4CCN(CC(=O)Nc5nccs5)CC4)c3[nH]2)cc1 (2 µM) 0, Cc1cc(C(=O)NC(C)(C)C)cc(C#Cc2ccc3c4c(oc3c2)C(C)(C)c2cc(NS(C)(=O)=O)ccc2C4=O)n1 (10 µM) 0, O=C(O)c1cc(N(Cc2ccccc2O)Cc2cc(O)ccc2O)ccc1O [Lavendustin A] (10 µM) 0, C[C@@H](Nc1ncnc2[nH]c(-c3ccc(O)cc3)cc12)c1ccccc1 (2.5 µM) 0, O=C(O)c1ccc(/C=C/S(=O)(=O)Cc2ccc(Cl)cc2)cc1 [Recilisib] (10 µM) 0, Nc1nc(NCCNc2ncc(-n3ccnc3)c(-c3ccc(Cl)cc3Cl)n2)ccc1[N+](=O)[O-] (2.5 µM) 0, Cc1cnc(NC(=O)c2cc(Oc3cnc(C(=O)N(C)C)nc3)c3cc(C)oc3c2)cn1 (10 µM) 0, CNC(=O)CNc1cnc2ccc(-c3ccc(OC)c(OC)c3)cc2n1 (10 µM) 0, N[C@@H]1CCCN(c2c(/C=C3\SC(=O)NC3=O)cccc2-c2ccccc2)C1 (10 µM) 0, CO[C@H]1C[C@@H]2CC[C@@H](C)[C@@](O)(O2)C(=O)C(=O)N2CCCC[C@H]2C(=O)O[C@H]([C@H](C)C[C@@H]2CC[C@@H](OC(=O)C(C)(CO)CO)[C@H](OC)C2)CC(=O)[C@H](C)/C=C(\C)[C@@H](O)[C@@H](OC)C(=O)[C@H](C)C[C@H](C)/C=C/C=C/C=C/1C [Temsirolimus] (2.5 µM) 0, COc1cc2nccc(Oc3ccc(NC(=O)c4cn(C(C)C)c(=O)n(-c5ccc(F)cc5)c4=O)cc3F)c2cc1OC (0.5 µM) 0, C=C1CCC[C@]2(C)C=C3OC(=O)C(C)=C3C[C@@H]12 [Atractylenolide I] (10 µM) 0, C=CC(=O)Nc1cc(Nc2nccc(-c3cn(C)c4ccccc34)n2)c(OC)cc1OCCN(C)C [Rezivertinib] (2.5 µM) 0, C=C1C(=O)[C@@]23[C@H](O)C[C@@H]4C(C)(C)C(=O)CC[C@@]4(C)[C@@H]2CC[C@@H]1[C@H]3O [Glaucocalyxin A] (2.5 µM) 0, NC1(C(=O)NCCCn2cc(-c3ccc(OC(F)(F)F)cc3)c3cc(CN4CCN(Cc5c(Cl)cccc5Cl)CC4)ccc32)CCNCC1 (2.5 µM) 0, CC(Sc1nc2c(cnn2-c2cccc(Cl)c2)c(=O)[nH]1)C(N)=O (stereo not given) (10 µM) 0, Fc1ccc2[nH]ccc2c1-c1nc(N2CCOCC2)c2sc(CN3CCN(CC4CC4)CC3)cc2n1 (10 µM) 0, Cn1cc(-c2cc(Oc3cc(F)c(NC(=O)C4(C(=O)Nc5ccccc5)CC4)cc3F)ccn2)cn1 (2.5 µM) 0, COc1ccc(S(=O)(=O)Nc2cc(-c3c(O)ccc4ccccc34)c(O)c3ccccc23)cc1 (10 µM) 0, Cn1c2cc([S+](C)[O-])sc2c2cnn(Cc3cccc(N)c3)c(=O)c21 (stereo not given) (2.5 µM) 0, O=C(NCCO)c1cc(C(=O)NCCO)cc(C(=O)NCCO)c1 (10 µM) 0, N#Cc1cnc2c(Cl)cc(NCc3cn(CCN4CCCCCC4)nn3)cc2c1Nc1ccc(F)c(Cl)c1 [Cot inhibitor-1] (10 µM) 0
